Measurements as given in paper PMC2946933.

Protein sequences, listed by entry. Tags and fused reporters are not part of them. Lines headed by an entry give the natural chain unless they say otherwise; changes in a name come on top.
UniProt P0A6X3: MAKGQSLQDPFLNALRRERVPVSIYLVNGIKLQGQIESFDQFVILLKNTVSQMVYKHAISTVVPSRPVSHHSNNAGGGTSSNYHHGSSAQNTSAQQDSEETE

Molecular target: Hfq wild type (Escherichia coli?) (UniProt P0A6X3)
Experiment: SHAPE footprinting
Conditions: 1 uM Hfq, regions R1, R2, R3; Tb footprinting: 50 mM Tris-HCl pH 8.0, 100 mM NaCl, 10 mM MgCl2; recombinant protein; probe letters rebuilt from the primers and the genome

Sequence: GGCCUUCGGGCCAAGCAGCGUUACAUUCCCAUCCACUGGGGAAAGACGCGGCGCUGAUUGGUGAAGUGGUGGAACGUAAAGGUGUUCGUCUUGCCGGUCUGUAUGGCGUGAAACGAACCCUCGAUUUACCACACGCCGAACCGCUUCCGCGUAUAUGCUAAUAAAAUUCUAAAUCUCCUAUAGUUAGUCAAUGACCUUUUGCACCGCUUUGCGGUGCUUUCCUGGAAGAACAAAAUGUCAUAUACACCGAUGAGUGAUCUCGGACAACAAGGGUUGUUCGACAUCACUCGGACAUCGAUCCGGUUCGCCGGAUCCAAAUCGGGCUUCGGUCCGGUUCAAUAUUGGAUCCGCUCGG [fhlA220 mRNA with SHAPE structure cassette]
- binding result: binds

Construct, isoform or probe ends are uncertain for at least one entry.
